These are yes or no findings as the source states them, for the method shown. Some results given as binding are weak or reduced against the parent protein; the word gives no strength. Sequences can lack the tags named with a protein.

Amino acid sequences for entries named in this document (tags omitted). Residues count along the entry.
UniProt P08581, residues 25-932: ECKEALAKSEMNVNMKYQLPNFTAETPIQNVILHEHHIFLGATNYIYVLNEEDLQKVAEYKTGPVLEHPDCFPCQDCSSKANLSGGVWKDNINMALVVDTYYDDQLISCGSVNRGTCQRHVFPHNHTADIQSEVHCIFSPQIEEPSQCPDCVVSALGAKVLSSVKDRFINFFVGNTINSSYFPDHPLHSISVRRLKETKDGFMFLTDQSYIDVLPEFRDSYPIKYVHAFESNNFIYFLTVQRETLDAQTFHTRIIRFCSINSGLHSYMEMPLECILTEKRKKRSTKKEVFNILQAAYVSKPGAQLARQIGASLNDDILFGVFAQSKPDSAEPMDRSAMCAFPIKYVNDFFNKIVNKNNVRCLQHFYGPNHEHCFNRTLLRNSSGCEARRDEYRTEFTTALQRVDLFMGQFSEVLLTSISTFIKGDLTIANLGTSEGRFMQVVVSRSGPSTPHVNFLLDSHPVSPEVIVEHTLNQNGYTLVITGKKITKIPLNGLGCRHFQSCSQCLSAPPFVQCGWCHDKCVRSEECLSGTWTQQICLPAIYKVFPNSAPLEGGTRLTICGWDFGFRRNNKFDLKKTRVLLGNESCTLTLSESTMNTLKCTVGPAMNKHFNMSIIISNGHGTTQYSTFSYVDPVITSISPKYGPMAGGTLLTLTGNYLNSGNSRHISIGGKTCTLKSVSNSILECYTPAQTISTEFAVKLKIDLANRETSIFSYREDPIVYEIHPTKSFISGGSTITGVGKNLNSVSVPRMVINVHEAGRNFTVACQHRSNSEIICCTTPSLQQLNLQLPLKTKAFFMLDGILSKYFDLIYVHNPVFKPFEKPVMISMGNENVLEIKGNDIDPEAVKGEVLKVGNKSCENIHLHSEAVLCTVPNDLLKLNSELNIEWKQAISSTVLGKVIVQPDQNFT

Assay [1] concerns the target T1, Human cMet antigen (human, UniProt P08581 25-932).
T1 construct: treated as one molecule; also called Human cMet-His antigen
Description: ELISA, antigen coated, VHH-Fc titrated.

The target in assay [2] is T1, Human cMet antigen. As to the kind of experiment: SPR, V-n7A12 injected over cMet held by V-n9A2. A general note: Surface plasmon resonance follows binding to a sensor surface in real time, without labels.
For assay [3], the target named is T1, Human cMet antigen. Description: SPR, V-n9A2 on CM5 chip, human cMet antigen 300 nM injected.

B1: V-n7A12 anti-cMet VHH-Fc (Fc fusion, not shown: a dimerising Fc or GST)
chain: EVQLVESGGGLVQAGGSLRLSCVASGNIFSSNHMGWFRQAPGKQREFIAYITTREITNYADSVKGRFTISRDNTKNTVYLQMNVLKPEDTAVYYCIADQSREIRRSWGQGTQVTVSS
notes: Bivalent VHH-Fc
Regarding B1, the binding result with Human cMet antigen [1] and with Human cMet antigen [2] was “binds” each time.

B2: V-n9A2 anti-cMet VHH-Fc (Fc fusion, not shown: a dimerising Fc or GST)
chain: QSQLAESGGGLVQSGGSLGLSCVASGFTISRSIMSWYRQPPGKERDWVASIGSAGNTNYVDSVKGRFTISRDVAKNTVYLQMNSLKPEDTAVYYCKTTLAVSFSEYWGQGTQVTVSS
notes: Bivalent VHH-Fc
On to B2, for which the binding result in the assay with Human cMet antigen [1] and with Human cMet antigen [3] was “binds” throughout.

These data come from EP4814014A1, “BINDING MOLECULE AND ANTIBODY-DRUG CONJUGATE AND USE THEREOF” (priority 2023, dated 2025).
